Results are given in words; binding and its absence hold for the method and conditions named.
Target: GST-V12 Cdc42 (constitutively active Cdc42Hs) (human) (UniProt P60953)
Assay: pull-down; GST fusion proteins (1 μg) on glutathione agarose, PI3Kα complexes (100–3200 ng) in solution; TBS with 10% (v/v) FBS, 1 h at 4°C; washes in TBS with 0.1% Tween 20; bound PI3Kα detected by immunoblot for p85α; both purified

The chains behind the UniProt entries cited, without tags or fusion partners. Where a name states a change or a piece, a line headed by the entry shows the natural chain unless it says otherwise. A line that says so, or that is headed by a name, gives the form on record, which may keep a tag or linker.
UniProt P60953: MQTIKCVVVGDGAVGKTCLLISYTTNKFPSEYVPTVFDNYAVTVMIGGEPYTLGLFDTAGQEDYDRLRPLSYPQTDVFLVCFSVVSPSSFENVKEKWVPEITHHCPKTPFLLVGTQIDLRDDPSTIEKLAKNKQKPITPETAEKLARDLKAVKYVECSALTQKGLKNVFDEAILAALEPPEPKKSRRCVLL
GST-V12 Cdc42 (constitutively active Cdc42Hs) (P60953, form named): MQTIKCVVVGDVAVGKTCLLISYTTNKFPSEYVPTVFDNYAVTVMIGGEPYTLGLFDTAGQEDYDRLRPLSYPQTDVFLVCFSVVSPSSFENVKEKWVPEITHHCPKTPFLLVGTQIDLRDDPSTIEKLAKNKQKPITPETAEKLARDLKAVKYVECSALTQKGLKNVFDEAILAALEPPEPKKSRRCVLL

Substance	binding
p110αEE^H1047R/p85α complex (H1047R oncogenic mutant PI3Kα) (from UniProt P42336 1-1068; P27986 1-724)	no binding (tested: 100–3200 ng PI3Kα (methods))
p110αEE^WT/p85α complex (wild-type PI3Kα) (from UniProt P42336 1-1068; P27986 1-724)	no binding (tested: 100–3200 ng PI3Kα (methods))
